The list does not hold the whole screen: it gathers tests that were run many times, whatever their T/C, doses with no T/C, and many T/C values between a quarter and a half above the control. Further doses and runs are listed elsewhere. T/C: endpoint of the treated group in % of that of the vehicle group. Some doses have a count of surviving animals in place of a T/C: the source holds a T/C of zero for them, seemingly a mark for toxic or unscored doses. Some survivor counts are full or nearly so, which does not show that the dose was tolerated: survival well below the control is almost never listed, so the zero probably covers shortened survival too. Survivors were counted at the toxicity check, usually on the fifth day, unless a day is given; later deaths do not show. Schedule codes are those of the source, read here as Q, the interval in days (D) or hours (H), X, the number of doses. Some entries hold several experiments; their values stand side by side, smallest first. For survival time, the PubChem record calls one and a half times the control and up active, and a quarter to a half above the control has no call in these data; cut-offs in other NCI protocols can differ. Some molecules as drawn cover several salts, stereoisomers or complexes of the source; a dose is that of the sample tested. Some T/C values carry the count of animals alive at the toxicity check (mostly the fifth day); where none is given, no animal had died by that day.
Test system: CD2F1 mice, intracerebral L1210 leukemia, survival T/C
Assay: NCI In Vivo Anticancer Drug Screen. Data for tumor model L1210 Leukemia (intracerebral) in CD2F1 (CDF1) mice
Conditions: higher T/C = longer survival
Experimental: The antitumor activity of compounds was measured in mice bearing transplantable tumors. Survival or tumor size were measured and the results are expressed as the measurement made in the treated group (T) divided by the measurement made in the vehicle treated control group (C). The tumor model used in this assay is L1210 Leukemia (intracerebral) in CD2F1 (CDF1) mice

[1] = T/C endpoint: mean survival time, dose: 2.0 mg/kg/injection, schedule: Q01DX009 (ip), vehicle: saline

Structure (SMILES): CN(C)N=Nc1cccc(C(N)=O)c1
- T/C (T/C endpoint: median survival time, dose: 40.0 mg/kg/injection, schedule: Q01DX005 (ip), vehicle: Klucel (hydroxypropylcellulose) (HPC)): 135 and 136 % of control
- survivor count (T/C endpoint: median survival time, dose: 160.0 mg/kg/injection, schedule: Q01DX005 (ip), vehicle: Klucel (hydroxypropylcellulose) (HPC)): 3 of 6 and 4 of 6

Structure (SMILES): CN(CO)c1nc(N(C)CO)nc(N(C)CO)n1
- survivor count (T/C endpoint: median survival time, dose: 50.0 mg/kg/injection, schedule: Q01DX009 (ip), vehicle: saline with Tween-80): 4 of 6
- survivor count (T/C endpoint: median survival time, dose: 100.0 mg/kg/injection, schedule: Q01DX009 (ip), vehicle: saline with Tween-80): 6 of 6
- survivor count (T/C endpoint: median survival time, dose: 200.0 mg/kg/injection, schedule: Q01DX009 (ip), vehicle: Klucel (hydroxypropylcellulose) (HPC)): 6 of 6
- survivor count (T/C endpoint: median survival time, dose: 200.0 mg/kg/injection, schedule: Q01DX009 (ip), vehicle: saline with Tween-80): 3 of 6
- survivor count (T/C endpoint: median survival time, dose: 400.0 mg/kg/injection, schedule: Q01DX009 (ip), vehicle: Klucel (hydroxypropylcellulose) (HPC)): 0 of 6
- survivor count (T/C endpoint: median survival time, dose: 400.0 mg/kg/injection, schedule: Q01DX009 (ip), vehicle: saline with Tween-80): 2 of 6
- survivor count (T/C endpoint: median survival time, dose: 800.0 mg/kg/injection, schedule: Q01DX009 (ip), vehicle: saline with Tween-80): 0 of 6

Structure (SMILES): CN(C)N=Nc1ccc([N+](=O)[O-])cc1C(N)=O
- survivor count (T/C endpoint: median survival time, dose: 256.0 mg/kg/injection, schedule: Q01DX005 (ip), vehicle: saline with Tween-80): 3 of 6
- survivor count (T/C endpoint: median survival time, dose: 512.0 mg/kg/injection, schedule: Q01DX005 (ip), vehicle: saline with Tween-80): 0 of 6

Structure (SMILES): c1ccc([C@H]2CN3CCSC3=N2)cc1
- T/C (T/C endpoint: median survival time, dose: 10.0 mg/kg/injection, schedule: Q01DX005 (ip), vehicle: saline): 132 % of control
- survivor count (T/C endpoint: median survival time, dose: 40.0 mg/kg/injection, schedule: Q01DX009 (ip), vehicle: saline): 0 of 6 and 2 of 6
- survivor count (T/C endpoint: median survival time, dose: 80.0 mg/kg/injection, schedule: Q01DX005 (ip), vehicle: saline): 0 of 10
- survivor count (T/C endpoint: median survival time, dose: 80.0 mg/kg/injection, schedule: Q01DX009 (ip), vehicle: saline): 0 of 6

Structure (SMILES): COc1cc([C@@H]2c3cc4c(cc3[C@@H](OC3OC5COC(C)OC5C(O)C3O)[C@H]3COC(=O)[C@H]23)OCO4)cc(OC)c1O (stereo not given in full)
- T/C (T/C endpoint: median survival time, dose: 16.0 mg/kg/injection, schedule: Q01DX009 (ip), vehicle: saline): 128 % of control

Structure (SMILES): CCCCCN(C)/N=N/c1nc[nH]c1C(N)=O
- T/C (T/C endpoint: median survival time, dose: 64.0 mg/kg/injection, schedule: Q01DX005 (ip), vehicle: saline with Tween-80): 129 % of control
- T/C (T/C endpoint: median survival time, dose: 128.0 mg/kg/injection, schedule: Q01DX005 (ip), vehicle: saline with Tween-80): 129 % of control

Structure (SMILES): Cc1ncc(CO)c(C)c1O
- survivor count (T/C endpoint: median survival time, dose: 512.0 mg/kg/injection, schedule: Q01DX005 (ip), vehicle: Klucel (hydroxypropylcellulose) (HPC)): 0 of 10
- survivor count (T/C endpoint: median survival time, dose: 1024.0 mg/kg/injection, schedule: Q01DX005 (ip), vehicle: Klucel (hydroxypropylcellulose) (HPC)): 0 of 10

Structure (SMILES): COc1cc([C@@H]2c3cc4c(cc3[C@@H](OC3OC5CO[C@@H](c6cccs6)OC5C(O)C3O)[C@H]3COC(=O)[C@H]23)OCO4)cc(OC)c1O (stereo not given in full)
- survivor count (T/C endpoint: median survival time, dose: 8.0 mg/kg/injection, schedule: Q01DX009 (ip), vehicle: saline): 5 of 6

Structure (SMILES): N[C@H](C(=O)O)[C@@H]1CC(Cl)=NO1
- T/C [1]: 142 % of control [9 of 10 alive]
- T/C (T/C endpoint: mean survival time, dose: 4.0 mg/kg/injection, schedule: Q01DX009 (ip), vehicle: saline): 142 % of control
- T/C (T/C endpoint: mean survival time, dose: 8.0 mg/kg/injection, schedule: Q01DX009 (ip), vehicle: saline): 132 % of control
- survivor count (T/C endpoint: mean survival time, dose: 64.0 mg/kg/injection, schedule: Q01DX009 (ip), vehicle: saline): 8 of 10
- survivor count (T/C endpoint: mean survival time, dose: 128.0 mg/kg/injection, schedule: Q01DX009 (ip), vehicle: saline): 8 of 10

Structure (SMILES): CN(C)N=Nc1ccc(C(=O)O)cc1
- T/C (T/C endpoint: mean survival time, dose: 100.0 mg/kg/injection, schedule: Q01DX009 (ip), vehicle: saline): 147 % of control
- T/C (T/C endpoint: mean survival time, dose: 120.0 mg/kg/injection, schedule: Q01DX007 (ip), vehicle: DMSO): 125 % of control

Structure (SMILES): C[C@]12C=CC(=O)C=C1CC[C@@H]1[C@@H]2CC[C@]2(C)OC(=O)CC[C@@H]12
- survivor count (T/C endpoint: median survival time, dose: 512.0 mg/kg/injection, schedule: Q01DX009 (ip), vehicle: saline with Tween-80): 3 of 6 and 5 of 6

Structure (SMILES): O=C1C=C(N2CC2)C(=O)C=C1N1CC1
- survivor count [1]: 2 of 6, 4 of 6, 6 of 6

Source: PubChem BioAssay AID260 (DTP/NCI, 2004)
